Assay results as given in the supplement of paper PMC10735217.
Where a name gives a salt, the structure may show the parent alone. The list shows a part of the results. This data set is noisy: repeats of one test often differ as much as different tests do.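 In a drug-repurposing library screen, luminescence reads luciferase driven by eight TEAD-binding elements, stably integrated into human kidney-derived cells. Compounds scoring over five robust Z scores above the plate mean are called hits.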

System: HEK293A TEAD-LUC reporter
Assay: TEAD-luciferase reporter activity (YAP activation), robust Z score vs plate; higher = stronger YAP/TEAD activation
Conditions: 24 h

Structure (SMILES)	TEAD-luciferase reporter activity (compound concentration: 200 nM)	TEAD-luciferase reporter activity (compound concentration: 2 uM)	TEAD-luciferase reporter activity (compound concentration: 10 uM)
COc1ccc2c(c1)n(CCN)c(=O)n2C(=O)[C@@H]1C[C@H](C)CC[C@H]1C(C)C	inactive: -1.67	inactive: 1.02	inactive: -0.446
C[N+](C)(C)CCO [choline chloride]	inactive: -0.875	inactive: -0.228	inactive: -1.18
C[C@@H](Oc1cc(NS(=O)(=O)N2CCC2)nc(SCc2cccc(F)c2F)n1)[C@@H](O)CO	inactive: 2.04	inactive: -0.228	inactive: 1.19
COc1cc2[nH]c(=O)c3nn(C(OC(=O)OC(C)C)C(C)C)nc3c(=O)c2cc1OC (centres undefined)	inactive: -0.884	inactive: -0.896	inactive: 2.86
CCN1C(=O)NC(c2ccccc2)C1=O (centres undefined) [Ethotoin]	inactive: -1.48	inactive: -0.281	inactive: 0.298
COc1cccc(OC)c1C(=O)N[C@@H]1C(=O)N2[C@@H]1SC(C)(C)[C@@H]2C(=O)O [Methicillin sodium salt]	inactive: -1.65	–	inactive: -0.897
COc1cccc(OC)c1C(=O)N[C@@H]1C(=O)N2[C@@H]1SC(C)(C)[C@@H]2C(=O)O [Meticillin sodium]	–	inactive: 0.456	–
CCN1CCC(c2cccc(S(C)(=O)=O)c2F)CC1	inactive: -0.837	inactive: -1.13	inactive: -0.882
CC1=C(C(=O)OCCN(C)Cc2ccc(F)cc2)C(c2cccc3c2OCO3)C(C(=O)OC(C)C)=C(C)N1 (centres undefined)	inactive: 1.76	inactive: -1.47	inactive: 0.454
COc1ccccc1OC1CCN(CCCC(=O)c2ccc(F)cc2)C1 (centres undefined)	inactive: -0.0284	inactive: -0.466	inactive: 1.04
CC(C)c1ccc2c(c1)C(N1CCN(CCO)CC1)Cc1ccc(F)cc1S2 (centres undefined) [isofloxythepin]	inactive: -2.67	inactive: -1.06	inactive: 1.39
CCOC[C@]12Cc3cnn(-c4ccc(F)cc4)c3C=C1CCN(S(=O)(=O)c1ccc(C(F)(F)F)cc1)C2	inactive: -0.825	inactive: 0.6	inactive: 0.574
CCSCc1ccc2c(c1)c1c3c(c4c5cc(CSCC)ccc5n5c4c1n2[C@H]1C[C@](O)(C(=O)OC)[C@]5(C)O1)CNC3=O	inactive: 2.05	active: 13.9	active: 19.3
COc1cc(C(=O)O)ccc1NC(=O)[C@@H]1N[C@@H](CC(C)(C)C)[C@](C#N)(c2ccc(Cl)cc2F)[C@H]1c1cccc(Cl)c1F	inactive: -0.34	inactive: -1.19	inactive: 2.27
COc1ccc(C(=O)N2CCC3(Cc4ccccc4NC3=O)C2)cc1 (centres undefined)	inactive: 4.6	–	inactive: -1.07
COc1cccc(-c2cccc(C(=O)N3CCCC3C(=O)NCc3ccc4c(c3)OCO4)c2)c1 (centres undefined)	inactive: 0.0169	–	inactive: -1.28
CC1(C)OC[C@@H](COC(=O)CCc2ccc(OC[C@@H](O)CNCCNC(=O)N3CCOCC3)cc2)O1 [landiolol hydrochloride]	inactive: -0.979	inactive: 0.384	inactive: 3.37

Structure (SMILES)	TEAD-luciferase reporter activity (compound concentration: 200 nM)	TEAD-luciferase reporter activity (compound concentration: 2 uM)	TEAD-luciferase reporter activity (compound concentration: 10 uM)
CC1=C(C(=O)O)N2C(=O)[C@@H](NC(=O)[C@H](N)c3ccc4ccccc4c3)[C@H]2SC1	inactive: -0.453	inactive: 0.517	inactive: 2.09
COc1cc(F)ccc1-c1ncnc(Nc2cccc(CS(C)(=N)=O)c2)n1 (centres undefined)	inactive: -1.33	active: 9.43	inactive: 1.29
C[C@@H](O)[C@H]1C(=O)N2C(C(=O)OCOC(=O)C(C)(C)C)=C(SC3CN(C4=NCCS4)C3)[C@H](C)[C@H]12 [tebipenem pivoxil]	inactive: -0.26	inactive: -0.233	inactive: -1.99
C=CCN1CCCC1CNC(=O)c1cc2nn[nH]c2cc1OC (centres undefined) [alizapride]	inactive: -0.747	inactive: -1.71	inactive: 0.442
CN1C(C)(C)CC(OC(=O)CCCCCCCCC(=O)OC2CC(C)(C)N(C)C(C)(C)C2)CC1(C)C	inactive: -0.251	inactive: -0.899	inactive: -1.22
O=C1NCCN1c1ncc([N+](=O)[O-])s1	inactive: -0.863	inactive: -1.3	inactive: -1.91
COCc1c(-c2cc3cc(C)cc(OC)c3s2)c2c(N)ncnn2c1CN1CCNC(=O)C1 [Rogaratinib]	inactive: -0.984	inactive: -1.15	inactive: -0.475
CC(C)Cc1ccc(-c2nc(-c3ccc(CN4CC(C(=O)O)C4)cc3)no2)cc1	inactive: -0.913	inactive: -1.88	inactive: 2.37
OC[C@H]1O[C@@H](n2cnc3c(NC4CCCC4)ncnc32)[C@H](O)[C@@H]1O	inactive: -1.35	inactive: 0.629	inactive: 0.114
N[C@H](Cc1nc2cc(Cl)ccc2n1CP(=O)(O)O)C(=O)O	inactive: -1.61	inactive: -1.47	inactive: 0.652
CN(C)CCN1C(=O)c2cccc3cc(N)cc(c23)C1=O [amonafide dihydrochloride]	inactive: 0.597	inactive: -1.76	inactive: -0.504
Clc1ccc2ccc(/C=C/c3cccc(Cn4ccc5cccc(CCc6nnn[nH]6)c54)c3)nc2c1	inactive: 0.546	inactive: 0.253	inactive: 2.88
Cn1c(=O)c2c(nc(NCC3CCCO3)n2Cc2cccc(Br)c2)n(C)c1=O (centres undefined)	inactive: -0.557	inactive: -1.15	inactive: -1.93
CCOC(=O)Cc1cc(Cl)c(Oc2ccc(C(=O)NC(C)(C)C)cc2NS(=O)(=O)c2ccc(Cl)cc2)cc1F	inactive: -0.296	inactive: -0.473	inactive: -1.57
CCN(CCCOc1ccc2c(Nc3cc(CC(=O)Nc4cccc(F)c4)[nH]n3)ncnc2c1)CCOP(=O)(O)O	inactive: -1.98	inactive: -0.794	inactive: -1.12
O=C1O[C@H]([C@@H]2COC(c3ccccc3)O2)C(O)=C1O (some centres undefined) [zilascorb]	inactive: 0.634	inactive: 0.908	inactive: 0.923

Record cards, from the list above. Values in the order: TEAD-luciferase reporter activity (compound concentration: 200 nM)	TEAD-luciferase reporter activity (compound concentration: 2 uM)	TEAD-luciferase reporter activity (compound concentration: 10 uM)
CN(C)CCN1C(=O)c2cccc3cc(N)cc(c23)C1=O [amonafide dihydrochloride] is listed as inactive: 0.597	inactive: -1.76	inactive: -0.504
Cn1c(=O)c2c(nc(NCC3CCCO3)n2Cc2cccc(Br)c2)n(C)c1=O (centres undefined) is listed as inactive: -0.557	inactive: -1.15	inactive: -1.93
